Experimental findings from article doi:10.1101/2023.12.08.570772 are described below.

Substitutions are numbered along the chain they refer to. No constants are given. Whether binding was seen depends on the method and setting. In cells and extracts the contact can be indirect. A yes stands for co-enrichment or nearness to the bait. Other partners may have been found. For some assays here: No binding means not detected with the bait. Where a sequence is shown, tags or fusion partners need not be part of it.

Experiment [1] has as its target T1, GFP-tagged MAGEC2 L318D (human) (UniProt Q9UBF1).
T1 sequence: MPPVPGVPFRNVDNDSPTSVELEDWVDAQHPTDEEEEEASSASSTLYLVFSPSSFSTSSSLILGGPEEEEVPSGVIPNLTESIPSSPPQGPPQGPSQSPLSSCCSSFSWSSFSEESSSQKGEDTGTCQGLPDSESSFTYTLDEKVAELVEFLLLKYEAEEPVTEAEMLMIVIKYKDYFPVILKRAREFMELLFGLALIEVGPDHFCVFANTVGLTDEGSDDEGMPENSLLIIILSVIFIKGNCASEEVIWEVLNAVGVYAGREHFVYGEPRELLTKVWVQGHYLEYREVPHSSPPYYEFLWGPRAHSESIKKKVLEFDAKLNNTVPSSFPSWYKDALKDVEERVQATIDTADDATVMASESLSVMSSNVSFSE
Briefly: affinity purification with mass spectrometry.

For experiment [2], the target named is T2, GFP-tagged MAGEC2 WT (human) (UniProt Q9UBF1).
T2 sequence: T1 sequence with D318L
The experiment can be described thus: affinity purification with mass spectrometry.

B1: MAGEB2 (protein, UniProt O15479 1-319)
chain: MPRGQKSKLRAREKRRKARDETRGLNVPQVTEAEEEEAPCCSSSVSGGAASSSPAAGIPQEPQRAPTTAAAAAAGVSSTKSKKGAKSHQGEKNASSSQASTSTKSPSEDPLTRKSGSLVQFLLYKYKIKKSVTKGEMLKIVGKRFREHFPEILKKASEGLSVVFGLELNKVNPNGHTYTFIDKVDLTDEESLLSSWDFPRRKLLMPLLGVIFLNGNSATEEEIWEFLNMLGVYDGEEHSVFGEPWKLITKDLVQEKYLEYKQVPSSDPPRFQFLWGPRAYAETSKMKVLEFLAKVNGTTPCAFPTHYEEALKDEEKAGV
Regarding B1, the binding result was “no binding” in experiment [1] and “binds” in experiment [2].
